Results published in paper PMC12604043.

Target: EGFP-tagged PRRSV nucleocapsid (N) protein (PRRSV (type 2, strain 01NP1))
Experiment: affinity purification with mass spectrometry; EGFP-N (control: EGFP) overexpressed in HEK293T, captured from lysate on GFP-trap agarose beads; lysis and wash buffer 50 mM HEPES pH 7.4, 150 mM NaCl, 1 mM EDTA, 10% glycerol, 1% Triton X-100; 2 h at 4 °C, 7 washes; label-free LC-MS/MS, three biological replicates; hits: mean enrichment ratio >= 8, p <= 0.02

Binder | binding
rRNA 2′-O-methyltransferase FTSJ3 (protein, UniProt Q8IY81 1-847) MGKKGKVGKSRRDKFYHLAKETGYRSRSAFKLIQLNRRFQFLQKARALLDLCAAPGGWLQVAAKFMPVSSLIVGVDLVPIKPLPNVVTLQQDITTERCRQALRKELKTWKVDVVLNDGAPNVGASWVHDAYSQAHLTLMALRLACDFLARGGSFITKVFRSRDYQPLLWIFQQLFRRVQATKPQASRHESAEIFVVCQGFLAPDKVDSKFFDPKFAFKEVEVQAKTVTELVTKKKPKAEGYAEGDLTLYHRTSVTDFLRAANPVDFLSKASEIMVDDEELAQHPATTEDIRVCCQDIRVLGRKELRSLLNWRTKLRRYVAKKLKEQAKALDISLSSGEEDEGDEEDSTAGTTKQPSKEEEEEEEEEQLNQTLAEMKAQEVAELKRKKKKLLREQRKQRERVELKMDLPGVSIADEGETGMFSLSTIRGHQLLEEVTQGDMSAADTFLSDLPRDDIYVSDVEDDGDDTSLDSDLDPEELAGVRGHQGLRDQKRMRLTEVQDDKEEEEEENPLLVPLEEKAVLQEEQANLWFSKGSFAGIEDDADEALEISQAQLLFENRRKGRQQQQKQQLPQTPPSCLKTEIMSPLYQDEAPKGTEASSGTEAATGLEGEEKDGISDSDSSTSSEEEESWEPLRGKKRSRGPKSDDDGFEIVPIEDPAKHRILDPEGLALGAVIASSKKAKRDLIDNSFNRYTFNEDEGELPEWFVQEEKQHRIRQLPVGKKEVEHYRKRWREINARPIKKVAEAKARKKRRMLKRLEQTRKKAEAVVNTVDISEREKVAQLRSLYKKAGLGKEKRHVTYVVAKKGVGRKVRRPAGVRGHFKVVDSRMKKDQRAQQRKEQKKKHKRK | binds
DNA repair protein complementing XP-C cells (protein, UniProt Q01831 1-940) MARKRAAGGEPRGRELRSQKSKAKSKARREEEEEDAFEDEKPPKKSLLSKVSQGKRKRGCSHPGGSADGPAKKKVAKVTVKSENLKVIKDEALSDGDDLRDFPSDLKKAHHLKRGATMNEDSNEEEEESENDWEEVEELSEPVLGDVRESTAFSRSLLPVKPVEIEIETPEQAKTRERSEKIKLEFETYLRRAMKRFNKGVHEDTHKVHLLCLLANGFYRNNICSQPDLHAIGLSIIPARFTRVLPRDVDTYYLSNLVKWFIGTFTVNAELSASEQDNLQTTLERRFAIYSARDDEELVHIFLLILRALQLLTRLVLSLQPIPLKSATAKGKKPSKERLTADPGGSSETSSQVLENHTKPKTSKGTKQEETFAKGTCRPSAKGKRNKGGRKKRSKPSSSEEDEGPGDKQEKATQRRPHGRERRVASRVSYKEESGSDEAGSGSDFELSSGEASDPSDEDSEPGPPKQRKAPAPQRTKAGSKSASRTHRGSHRKDPSLPAASSSSSSSKRGKKMCSDGEKAEKRSIAGIDQWLEVFCEQEEKWVCVDCVHGVVGQPLTCYKYATKPMTYVVGIDSDGWVRDVTQRYDPVWMTVTRKCRVDAEWWAETLRPYQSPFMDREKKEDLEFQAKHMDQPLPTAIGLYKNHPLYALKRHLLKYEAIYPETAAILGYCRGEAVYSRDCVHTLHSRDTWLKKARVVRLGEVPYKMVKGFSNRARKARLAEPQLREENDLGLFGYWQTEEYQPPVAVDGKVPRNEFGNVYLFLPSMMPIGCVQLNLPNLHRVARKLDIDCVQAITGFDFHGGYSHPVTDGYIVCEEFKDVLLTAWENEQAVIERKEKEKKEKRALGNWKLLAKGLLIRERLKRRYGPKSEAAAPHTDAGGGLSSDEEEGTSSQAEAARILAASWPQNREDEEKQKLKGGPKKTKREKKAAASHLFPFEQL | binds
28S rRNA (cytosine-C(5))-methyltransferase NOP2 (endogenous, human) (protein, UniProt P46087 1-812) MGRKLDPTKEKRGPGRKARKQKGAETELVRFLPAVSDENSKRLSSRARKRAAKRRLGSVEAPKTNKSPEAKPLPGKLPKGISAGAVQTAGKKGPQSLFNAPRGKKRPAPGSDEEEEEEDSEEDGMVNHGDLWGSEDDADTVDDYGADSNSEDEEEGEALLPIERAARKQKAREAAAGIQWSEEETEDEEEEKEVTPESGPPKVEEADGGLQINVDEEPFVLPPAGEMEQDAQAPDLQRVHKRIQDIVGILRDFGAQREEGRSRSEYLNRLKKDLAIYYSYGDFLLGKLMDLFPLSELVEFLEANEVPRPVTLRTNTLKTRRRDLAQALINRGVNLDPLGKWSKTGLVVYDSSVPIGATPEYLAGHYMLQGASSMLPVMALAPQEHERILDMCCAPGGKTSYMAQLMKNTGVILANDANAERLKSVVGNLHRLGVTNTIISHYDGRQFPKVVGGFDRVLLDAPCSGTGVISKDPAVKTNKDEKDILRCAHLQKELLLSAIDSVNATSKTGGYLVYCTCSITVEENEWVVDYALKKRNVRLVPTGLDFGQEGFTRFRERRFHPSLRSTRRFYPHTHNMDGFFIAKFKKFSNSIPQSQTGNSETATPTNVDLPQVIPKSENSSQPAKKAKGAAKTKQQLQKQQHPKKASFQKLNGISKGADSELSTVPSVTKTQASSSFQDSSQPAGKAEGIREPKVTGKLKQRSPKLQSSKKVAFLRQNAPPKGTDTQTPAVLSPSKTQATLKPKDHHQPLGRAKGVEKQQLPEQPFEKAAFQKQNDTPKGPQPPTVSPIRSSRPPPAKRKKSQSRGNSQLLLS | binds
regulator of nonsense transcripts 3B (endogenous, human) (protein, UniProt Q9BZI7 1-483) MKEEKEHRPKEKRVTLLTPAGATGSGGGTSGDSSKGEDKQDRNKEKKEALSKVVIRRLPPTLTKEQLQEHLQPMPEHDYFEFFSNDTSLYPHMYARAYINFKNQEDIILFRDRFDGYVFLDNKGQEYPAIVEFAPFQKAAKKKTKKRDTKVGTIDDDPEYRKFLESYATDNEKMTSTPETLLEEIEAKNRELIAKKTTPLLSFLKNKQRMREEKREERRRREIERKRQREEERRKWKEEEKRKRKDIEKLKKIDRIPERDKLKDEPKIKVHRFLLQAVNQKNLLKKPEKGDEKELDKREKAKKLDKENLSDERASGQSCTLPKRSDSELKDEKPKRPEDESGRDYREREREYERDQERILRERERLKRQEEERRRQKERYEKEKTFKRKEEEMKKEKDTLRDKGKKAESTESIGSSEKTEKKEEVVKRDRIRNKDRPAMQLYQPGARSRNRLCPPDDSTKSGDSAAERKQESGISHRKEGGEE | binds
protein phosphatase 1G (endogenous, human) (protein, UniProt O15355 1-546) MGAYLSQPNTVKCSGDGVGAPRLPLPYGFSAMQGWRVSMEDAHNCIPELDSETAMFSVYDGHGGEEVALYCAKYLPDIIKDQKAYKEGKLQKALEDAFLAIDAKLTTEEVIKELAQIAGRPTEDEDEKEKVADEDDVDNEEAALLHEEATMTIEELLTRYGQNCHKGPPHSKSGGGTGEEPGSQGLNGEAGPEDSTRETPSQENGPTAKAYTGFSSNSERGTEAGQVGEPGIPTGEAGPSCSSASDKLPRVAKSKFFEDSEDESDEAEEEEEDSEECSEEEDGYSSEEAENEEDEDDTEEAEEDDEEEEEEMMVPGMEGKEEPGSDSGTTAVVALIRGKQLIVANAGDSRCVVSEAGKALDMSYDHKPEDEVELARIKNAGGKVTMDGRVNGGLNLSRAIGDHFYKRNKNLPPEEQMISALPDIKVLTLTDDHEFMVIACDGIWNVMSSQEVVDFIQSKISQRDENGELRLLSSIVEELLDQCLAPDTSGDGTGCDNMTCIIICFKPRNTAELQPESGKRKLEEVLSTEGAEENGNSDKKKKAKRD | binds
ataxin-2-like protein (protein, UniProt Q8WWM7 1-1075) MLKPQPLQQPSQPQQPPPTQQAVARRPPGGTSPPNGGLPGPLATSAAPPGPPAAASPCLGPVAAAGSGLRRGAEGILAPQPPPPQQHQERPGAAAIGSARGQSTGKGPPQSPVFEGVYNNSRMLHFLTAVVGSTCDVKVKNGTTYEGIFKTLSSKFELAVDAVHRKASEPAGGPRREDIVDTMVFKPSDVMLVHFRNVDFNYATKDKFTDSAIAMNSKVNGEHKEKVLQRWEGGDSNSDDYDLESDMSNGWDPNEMFKFNEENYGVKTTYDSSLSSYTVPLEKDNSEEFRQRELRAAQLAREIESSPQYRLRIAMENDDGRTEEEKHSAVQRQGSGRESPSLASREGKYIPLPQRVREGPRGGVRCSSSRGGRPGLSSLPPRGPHHLDNSSPGPGSEARGINGGPSRMSPKAQRPLRGAKTLSSPSNRPSGETSVPPPPAVGRMYPPRSPKSAAPAPISASCPEPPIGSAVPTSSASIPVTSSVSDPGVGSISPASPKISLAPTDVKELSTKEPGRTLEPQELARIAGKVPGLQNEQKRFQLEELRKFGAQFKLQPSSSPENSLDPFPPRILKEEPKGKEKEVDGLLTSEPMGSPVSSKTESVSDKEDKPPLAPSGGTEGPEQPPPPCPSQTGSPPVGLIKGEDKDEGPVAEQVKKSTLNPNAKEFNPTKPLLSVNKSTSTPTSPGPRTHSTPSIPVLTAGQSGLYSPQYISYIPQIHMGPAVQAPQMYPYPVSNSVPGQQGKYRGAKGSLPPQRSDQHQPASAPPMMQAAAAAGPPLVAATPYSSYIPYNPQQFPGQPAMMQPMAHYPSQPVFAPMLQSNPRMLTSGSHPQAIVSSSTPQYPSAEQPTPQALYATVHQSYPHHATQLHAHQPQPATTPTGSQPQSQHAAPSPVQHQAGQAPHLGSGQPQQNLYHPGALTGTPPSLPPGPSAQSPQSSFPQPAAVYAIHHQQLPHGFTNMAHVTQAHVQTGITAAPPPHPGAPHPPQVMLLHPPQSHGGPPQGAVPQSGVPALSASTPSPYPYIGHPQGEQPGQAPGFPGGADDRIREFSLAGGIWHGRAEGLQVGQDARVLGGE | binds

Results are given in words; binding and its absence hold for the method and conditions named. Binding seen in cells or lysates may run through a third protein. A yes stands for co-enrichment or nearness to the bait. Other partners may have been found.
